# Data as given in PubChem BioAssay AID272 (DTP/NCI, 2004).
# The list shows only some results of the screen, not a fair sample: it gathers tests that were run many times, whatever their T/C, doses with no T/C, and many T/C values between a quarter and a half above the control. Other doses and runs of a compound stand elsewhere. T/C is the treated group as % of the vehicle group. Some doses have a count of surviving animals in place of a T/C: the source files T/C as zero there, which appears to mark a toxic dose or a test without result, not a measured value. Some doses without a T/C left all or most animals alive at the check, yet need not have been tolerated: survival well below the control is almost never listed, so the zero probably covers shortened survival too. Survivors were counted at the toxicity check, usually on the fifth day, unless a day is given; later deaths do not show. Schedules are NCI's codes, read here as Q, the interval in days (D) or hours (H), X, the number of doses. Some doses were run more than once; the values are given in rising order. Marks such as (2×) count equal records among those shown. Where survival is the endpoint, this PubChem deposit counts one and a half times the control or more as active, and values a quarter to a half above the control carry no call in these data; other NCI protocols may use other cut-offs. Some T/C values carry the count of animals alive at the toxicity check (mostly the fifth day); where none is given, no animal had died by that day.
# Tested on: Lewis lung carcinoma i.m., BDF1 mice, T/C %
# Assay: NCI In Vivo Anticancer Drug Screen. Data for tumor model Lewis Lung Carcinoma (intramuscular) in B6D2F1 (BDF1) mice
# Method in brief: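 Transplantable tumour model; readout survival or tumour size; value = treated (T) / vehicle control (C).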
# [1] = T/C endpoint: median survival time, dose: 3.12 mg/kg/injection, schedule: Q01DX011 (ip), vehicle: other, higher T/C = longer survival
# [2] = T/C endpoint: median survival time, dose: 6.25 mg/kg/injection, schedule: Q01DX011 (ip), vehicle: other, higher T/C = longer survival
# [3] = T/C endpoint: median survival time, dose: 50.0 mg/kg/injection, schedule: Q01DX011 (ip), vehicle: other, higher T/C = longer survival
smiles,measurement,setting,value
CC(=O)O[C@H]1[C@H]2O[C@]23[C@@H]2CC[C@@H]4C[C@@H](O)CC[C@]4(C)[C@H]2CC[C@]3(C)[C@H]1c1ccc(=O)oc1,survivor count,"T/C endpoint: mean tumor weight (est.), dose: 3.75 mg/kg/injection, schedule: Q01DX011 (ip), vehicle: other, higher T/C = larger tumour",1 of 8
same,survivor count,"T/C endpoint: mean tumor weight (est.), dose: 15.0 mg/kg/injection, schedule: Q01DX011 (ip), vehicle: other, higher T/C = larger tumour",4 of 8
same,survivor count,"T/C endpoint: median survival time, dose: 3.75 mg/kg/injection, schedule: Q01DX011 (ip), vehicle: other, higher T/C = longer survival",1 of 8
same,survivor count,"T/C endpoint: median survival time, dose: 15.0 mg/kg/injection, schedule: Q01DX011 (ip), vehicle: other, higher T/C = longer survival",4 of 8
same,survivor count,"T/C endpoint: median survival time, dose: 30.0 mg/kg/injection, schedule: Q01DX011 (ip), vehicle: other, higher T/C = longer survival",0 of 8
CSc1ncnc2nc[nH]c12,survivor count,"T/C endpoint: mean tumor weight (est.), dose: 3.12 mg/kg/injection, schedule: Q01DX011 (ip), vehicle: other, higher T/C = larger tumour",5 of 8
same,survivor count,"T/C endpoint: mean tumor weight (est.), dose: 25.0 mg/kg/injection, schedule: Q01DX011 (ip), vehicle: other, higher T/C = larger tumour",5 of 8
same,survivor count,"T/C endpoint: mean tumor weight (est.), dose: 100.0 mg/kg/injection, schedule: Q01DX011 (ip), vehicle: other, higher T/C = larger tumour",2 of 8
same,survivor count,"T/C endpoint: mean tumor weight, dose: 25.0 mg/kg/injection, schedule: Q01DX011 (ip), vehicle: other, higher T/C = larger tumour",4 of 8 and 5 of 8
same,survivor count,"T/C endpoint: mean tumor weight, dose: 100.0 mg/kg/injection, schedule: Q01DX011 (ip), vehicle: other, higher T/C = larger tumour",1 of 8
same,T/C,[1],129 % of control [6 of 8 alive]
same,survivor count,[1],5 of 8
same,T/C,[2],127 % of control [6 of 8 alive]
same,survivor count,[2],7 of 8
same,survivor count,"T/C endpoint: median survival time, dose: 25.0 mg/kg/injection, schedule: Q01DX011 (ip), vehicle: other, higher T/C = longer survival",4 of 8 and 5 of 8 (2×)
same,T/C,[3],148 % of control [6 of 8 alive]
same,survivor count,[3],6 of 8
same,survivor count,"T/C endpoint: median survival time, dose: 100.0 mg/kg/injection, schedule: Q01DX011 (ip), vehicle: other, higher T/C = longer survival",1 of 8 and 2 of 8
same,survivor count,"T/C endpoint: median survival time, dose: 200.0 mg/kg/injection, schedule: Q01DX011 (ip), vehicle: other, higher T/C = longer survival",0 of 8
same,survivor count,"T/C endpoint: median survival time, dose: 400.0 mg/kg/injection, schedule: Q01DX011 (ip), vehicle: other, higher T/C = longer survival",0 of 8
CCN(CC)CCNc1ccc(CO)c2sc3ccccc3c(=O)c12,survivor count,"T/C endpoint: median survival time, dose: 150.0 mg/kg/injection, schedule: Q01DX011 (ip), vehicle: saline, higher T/C = longer survival",1 of 8
same,survivor count,"T/C endpoint: median survival time, dose: 300.0 mg/kg/injection, schedule: Q01DX011 (ip), vehicle: saline, higher T/C = longer survival",0 of 8
OC1CCCC2CCC[N-]C12.OC1CCCC2CCC[N-]C12.[O]=[V][OH] (stereo unspecified),survivor count,"T/C endpoint: median survival time, dose: 50.0 mg/kg/injection, schedule: Q01DX011 (ip), vehicle: saline, higher T/C = longer survival",0 of 8
CN1C=c2c3c(ccc2=C2C=CC4C=C5OCOC5=CC4=C21)OCO3 (stereo unspecified),survivor count,"T/C endpoint: median survival time, dose: 30.0 mg/kg/injection, schedule: Q01DX011 (ip), vehicle: saline with Tween-80, higher T/C = longer survival",0 of 8
same,survivor count,"T/C endpoint: median survival time, dose: 60.0 mg/kg/injection, schedule: Q01DX011 (ip), vehicle: saline with Tween-80, higher T/C = longer survival",0 of 8
CN1CCN(c2ccc([N+](=O)[O-])c3no[n+]([O-])c23)CC1,survivor count,"T/C endpoint: median survival time, dose: 5.0 mg/kg/injection, schedule: Q02DX011 (ip), vehicle: saline with Tween-80, higher T/C = longer survival",19 of 19
